The conditions of this series: human, microsomes, 1 h, 1 μM.

Regarding `CCCNCC(O)COc1ccccc1C(=O)CCc1ccccc1` (centres unmarked) [Propafenone, propafenone], the “Remaining (NCF = 60 min)” value was found to be 93.6% and the “Remaining (T = 60 min)” value is listed as 0.0%.

Source of the values: article PMC9739877, “Discovery and Mechanistic Investigation of Piperazinone Phenylalanine Derivatives with Terminal Indole or Benzene Ring as Novel HIV-1 Capsid Modulators” (Molecules, 2022).
